Data from PMC10932423.
No constants are given. Whether binding was seen depends on the method and setting. Some binding calls cover weakened binding; strength is not graded here.

By UniProt entry, the sequences of proteins in these tests, tags left out. Where a name states a change or a piece, a line headed by the entry shows the natural chain unless it says otherwise. Chains listed by the source or under a name are the forms on record and can include a tag or linker. Residues count along the entry.
GST-tagged LRR domain of polycystin-1 (GST-LRR WT) (P98161, residues 24-176): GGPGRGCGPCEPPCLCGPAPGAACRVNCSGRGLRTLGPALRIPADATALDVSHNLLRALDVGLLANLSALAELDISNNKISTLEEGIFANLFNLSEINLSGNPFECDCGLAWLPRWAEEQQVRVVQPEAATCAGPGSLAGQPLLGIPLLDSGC
GST-tagged LRR domain of polycystin-1 with the E107A mutation (P98161, form named): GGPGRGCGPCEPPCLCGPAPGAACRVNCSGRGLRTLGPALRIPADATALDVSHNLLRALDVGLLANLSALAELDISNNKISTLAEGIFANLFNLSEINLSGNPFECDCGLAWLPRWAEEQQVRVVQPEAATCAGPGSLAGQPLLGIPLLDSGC
UniProt O15230: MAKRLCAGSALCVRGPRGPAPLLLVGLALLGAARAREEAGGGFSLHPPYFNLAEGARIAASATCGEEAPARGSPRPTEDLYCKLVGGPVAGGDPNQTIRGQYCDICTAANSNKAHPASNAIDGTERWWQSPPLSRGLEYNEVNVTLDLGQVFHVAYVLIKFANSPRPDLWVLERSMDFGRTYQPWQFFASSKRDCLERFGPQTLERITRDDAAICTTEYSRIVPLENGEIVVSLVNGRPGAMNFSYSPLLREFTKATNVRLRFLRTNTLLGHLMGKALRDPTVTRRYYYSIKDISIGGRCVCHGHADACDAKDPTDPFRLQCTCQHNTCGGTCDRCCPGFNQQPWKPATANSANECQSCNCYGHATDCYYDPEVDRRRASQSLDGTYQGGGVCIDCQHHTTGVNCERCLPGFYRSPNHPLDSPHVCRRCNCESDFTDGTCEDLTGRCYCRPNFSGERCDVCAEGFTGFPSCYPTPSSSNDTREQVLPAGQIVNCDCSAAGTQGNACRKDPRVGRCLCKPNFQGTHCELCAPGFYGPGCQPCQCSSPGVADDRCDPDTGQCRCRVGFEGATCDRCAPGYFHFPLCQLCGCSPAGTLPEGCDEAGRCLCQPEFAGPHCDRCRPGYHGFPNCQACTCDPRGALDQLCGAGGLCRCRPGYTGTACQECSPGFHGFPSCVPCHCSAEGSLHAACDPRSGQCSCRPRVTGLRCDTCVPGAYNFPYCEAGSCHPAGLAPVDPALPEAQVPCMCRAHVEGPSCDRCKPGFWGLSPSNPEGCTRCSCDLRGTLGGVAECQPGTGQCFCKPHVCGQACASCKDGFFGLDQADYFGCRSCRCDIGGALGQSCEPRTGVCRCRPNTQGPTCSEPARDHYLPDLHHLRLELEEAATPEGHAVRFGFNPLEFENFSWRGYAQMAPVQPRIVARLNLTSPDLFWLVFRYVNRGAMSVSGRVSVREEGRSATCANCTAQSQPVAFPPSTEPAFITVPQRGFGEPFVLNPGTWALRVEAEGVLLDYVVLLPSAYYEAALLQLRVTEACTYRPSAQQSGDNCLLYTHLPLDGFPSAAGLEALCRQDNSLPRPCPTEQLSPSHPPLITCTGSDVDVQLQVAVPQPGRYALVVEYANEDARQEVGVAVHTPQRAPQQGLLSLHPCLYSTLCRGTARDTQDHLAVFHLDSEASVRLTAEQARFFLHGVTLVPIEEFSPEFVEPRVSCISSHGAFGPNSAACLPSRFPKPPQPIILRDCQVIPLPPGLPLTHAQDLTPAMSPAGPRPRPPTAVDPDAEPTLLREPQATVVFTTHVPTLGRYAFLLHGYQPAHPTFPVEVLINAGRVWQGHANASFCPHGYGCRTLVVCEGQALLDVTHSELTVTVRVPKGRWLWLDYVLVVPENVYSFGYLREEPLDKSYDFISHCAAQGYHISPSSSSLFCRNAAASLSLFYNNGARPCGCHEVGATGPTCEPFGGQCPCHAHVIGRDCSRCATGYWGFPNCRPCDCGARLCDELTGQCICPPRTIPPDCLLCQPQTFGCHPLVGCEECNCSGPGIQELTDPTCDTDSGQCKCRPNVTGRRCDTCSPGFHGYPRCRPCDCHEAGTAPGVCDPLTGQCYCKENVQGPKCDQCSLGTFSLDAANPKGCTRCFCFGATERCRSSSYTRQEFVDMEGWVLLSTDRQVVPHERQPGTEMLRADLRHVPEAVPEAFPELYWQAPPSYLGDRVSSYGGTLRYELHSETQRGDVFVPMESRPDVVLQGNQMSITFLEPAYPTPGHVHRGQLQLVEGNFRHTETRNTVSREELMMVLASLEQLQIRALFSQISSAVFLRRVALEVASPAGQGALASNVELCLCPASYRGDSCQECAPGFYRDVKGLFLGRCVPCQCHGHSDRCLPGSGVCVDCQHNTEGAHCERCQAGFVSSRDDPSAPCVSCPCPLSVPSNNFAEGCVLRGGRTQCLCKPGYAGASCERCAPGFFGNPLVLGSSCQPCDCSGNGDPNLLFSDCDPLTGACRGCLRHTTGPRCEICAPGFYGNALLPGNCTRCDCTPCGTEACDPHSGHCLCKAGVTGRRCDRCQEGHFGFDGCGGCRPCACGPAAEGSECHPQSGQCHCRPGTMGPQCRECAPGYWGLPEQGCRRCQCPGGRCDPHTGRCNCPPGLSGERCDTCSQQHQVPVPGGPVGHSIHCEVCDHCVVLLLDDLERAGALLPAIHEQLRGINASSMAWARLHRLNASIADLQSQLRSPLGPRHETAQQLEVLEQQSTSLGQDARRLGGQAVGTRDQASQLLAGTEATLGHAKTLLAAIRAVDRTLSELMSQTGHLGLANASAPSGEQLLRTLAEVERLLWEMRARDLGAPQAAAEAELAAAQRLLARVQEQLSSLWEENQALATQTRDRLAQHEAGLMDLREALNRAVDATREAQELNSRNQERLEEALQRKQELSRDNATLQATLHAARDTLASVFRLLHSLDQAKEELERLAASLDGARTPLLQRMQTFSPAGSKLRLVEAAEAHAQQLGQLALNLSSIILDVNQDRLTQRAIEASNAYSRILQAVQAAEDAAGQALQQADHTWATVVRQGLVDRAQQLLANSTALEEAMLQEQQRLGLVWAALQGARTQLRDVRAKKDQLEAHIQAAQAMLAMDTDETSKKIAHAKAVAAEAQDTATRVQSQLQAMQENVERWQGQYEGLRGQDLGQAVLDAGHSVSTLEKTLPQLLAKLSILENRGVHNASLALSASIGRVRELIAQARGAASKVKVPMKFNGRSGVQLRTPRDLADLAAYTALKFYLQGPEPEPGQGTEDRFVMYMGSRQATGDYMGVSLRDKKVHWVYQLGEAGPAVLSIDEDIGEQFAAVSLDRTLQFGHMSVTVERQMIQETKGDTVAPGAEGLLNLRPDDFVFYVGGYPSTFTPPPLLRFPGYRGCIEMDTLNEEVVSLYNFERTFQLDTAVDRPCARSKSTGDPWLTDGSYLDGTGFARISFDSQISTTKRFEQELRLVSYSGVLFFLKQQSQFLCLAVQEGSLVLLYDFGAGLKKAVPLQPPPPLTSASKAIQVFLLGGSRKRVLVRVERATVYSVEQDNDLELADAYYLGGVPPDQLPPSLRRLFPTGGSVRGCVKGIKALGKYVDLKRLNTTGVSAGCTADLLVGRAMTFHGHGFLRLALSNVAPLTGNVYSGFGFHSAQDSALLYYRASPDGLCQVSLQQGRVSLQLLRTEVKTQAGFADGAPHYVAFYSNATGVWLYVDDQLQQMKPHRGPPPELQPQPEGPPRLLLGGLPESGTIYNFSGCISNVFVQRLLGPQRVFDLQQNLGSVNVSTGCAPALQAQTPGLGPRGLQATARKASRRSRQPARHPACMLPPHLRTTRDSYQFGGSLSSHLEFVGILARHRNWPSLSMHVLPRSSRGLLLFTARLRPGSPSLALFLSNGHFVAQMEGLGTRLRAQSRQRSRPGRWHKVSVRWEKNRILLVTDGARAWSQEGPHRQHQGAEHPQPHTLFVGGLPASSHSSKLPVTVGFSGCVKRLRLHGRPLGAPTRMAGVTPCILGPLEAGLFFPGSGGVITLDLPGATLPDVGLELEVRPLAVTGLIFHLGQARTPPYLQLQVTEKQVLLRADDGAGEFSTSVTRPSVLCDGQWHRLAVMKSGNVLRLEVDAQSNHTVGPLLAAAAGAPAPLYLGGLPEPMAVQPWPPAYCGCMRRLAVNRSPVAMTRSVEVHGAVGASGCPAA

Assays:
[1] = target: GST-tagged LRR domain of polycystin-1 with the E107A mutation (human) (UniProt P98161); test: pull-down; co-purification: purified GST-LRR (or GST, or mutant) bound to glutathione resin; laminin-511 (~50 ug) added, 2 h at 4 °C; 50 mM Tris-HCl pH 8.0, 200 mM NaCl, 1 mM DTT; washed twice; eluted with 20 mM reduced glutathione; both purified
[2] = target: GST-tagged LRR domain of polycystin-1 (GST-LRR WT) (human) (UniProt P98161); test: as above

binding [2]: binds
Substance: laminin-511 (α5β1γ1) (from UniProt O15230 36-3695; P07942 22-1786; P11047 34-1609) (complex)
binding [1]: no binding (tested: ~50 ug laminin-511 added)
